Results published in patent US20240398947A1, “CAR T-CELL ADJUVANT THERAPIES” (CytoAgents, Inc., priority 2020, published 2024).
For at least one compound, name, drawing or mass did not settle the structure.

Tested on: normal human PBMC
Experiment: Cytokine release assay in stimulated normal human PBMC (Luminex multiplex)
Type: cell-based
Details: DEX 1 μM, GP1681 750 μM; for significant reduction of IL-6: 24 h supernatant (1:5 dilution)
[1] = LPS-stimulated PBMC, 24 h supernatant
[2] = Poly(I:C)-stimulated PBMC, 24 h supernatant

CC#CC[C@H](C)[C@H](O)/C=C/[C@@H]1[C@H]2c3cccc(CCCC(=O)[O-])c3O[C@H]2C[C@H]1O.[Na+] [GP1681, esuberaprost sodium salt]
NO: significant reduction of IL-6 (LPS-stimulated PBMC) | significant reduction of GCSF [1] | significant reduction of IL-2 [1] | significant reduction of IL-8 [1] | significant reduction of IL-10 [1] | significant reduction of TGFB [1] | significant reduction of IL-6 (Poly(I:C)-stimulated PBMC) | significant reduction of CCL3 (MIP1 α) [2] | significant reduction of FGF [2] | significant reduction of GCSF [2] | significant reduction of IL-2 [2] | significant reduction of IL-8 [2] | significant reduction of IL-9 [2] | significant reduction of IL-10 [2] | significant reduction of IL-17 [2] | significant reduction of TGFB [2]
